We go through two molecules from publication PMC3743044.

The target in assay [1] is T1, GST-tagged Pak3 Cdc42 binding domain (GST-Pak3BD) (mouse) (UniProt Q61036).
T1 sequence: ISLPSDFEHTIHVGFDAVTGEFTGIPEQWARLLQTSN
Put plainly: ELISA; 10 μg/ml GST-Pak3BD immobilised on MaxiSorp; 0.35 μM 6×His-Cdc42 (with or without TGM2/HA), preloaded with GMP-PNP, GDP or GTP, added with 0.2 μM GST-p50RhoGAPΔ in interaction buffer, 30 min at 30 °C; detected with 5×His antibody and TMB; both purified.

The target of another assay is 6×His-Cdc42 (mouse). The experiment in a line: pull-down; 6 μM 6×His-Cdc42 pre-treated with GMP-PNP, GDP, GTP or GTP + TGM2/HA, 5 mM MgCl2 and 0.2 μM GST-p50RhoGAPΔ, 15 min 37 °C; 40 nM GST-Pak3BD added with Ni-NTA magnetic agarose beads in interaction buffer, at least 4 h at 4 °C; immunoblot; both purified.

These are yes or no findings as the source states them, for the method shown. A result given as binding can be weak or reduced; the word gives no strength. Where a sequence is shown, tags or fusion partners need not be part of it.

With 6×His-Cdc42 (mouse), in assay [1], the binding result was “binds”.

With ISLPSDFEHTIHVGFDAVTGEFTGIPEQWARLLQTSN (domain or fragment, UniProt Q61036-2 70-106) [GST-tagged Pak3 Cdc42 binding domain (GST-Pak3BD)], the binding entry with 6×His-Cdc42 (mouse) was “binds”.
